Data taken from the supplement of paper PMC12823440, “Inhibitors supercharge kinase turnover through native proteolytic circuits” (Nature, 2025).
This is one part of the list. The calls rarely recur for the same compound in another form.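 In K562 cells expressing nanoluciferase-fused kinases, luminescence was recorded at 4 h intervals between 2 and 18 h, normalized as percent of control with DMSO at 100% and a positive control at 0%. A significant (2 sigma) signal drop marks a time point as decreased. The authors' rule for a hit is not shown and takes in more than the number of time points.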

Chains of the proteins cited; added tags and fusions are not shown. Lines headed by an entry give the natural chain unless they say otherwise; changes in a name come on top.
UniProt P42356, whole entry, looked up: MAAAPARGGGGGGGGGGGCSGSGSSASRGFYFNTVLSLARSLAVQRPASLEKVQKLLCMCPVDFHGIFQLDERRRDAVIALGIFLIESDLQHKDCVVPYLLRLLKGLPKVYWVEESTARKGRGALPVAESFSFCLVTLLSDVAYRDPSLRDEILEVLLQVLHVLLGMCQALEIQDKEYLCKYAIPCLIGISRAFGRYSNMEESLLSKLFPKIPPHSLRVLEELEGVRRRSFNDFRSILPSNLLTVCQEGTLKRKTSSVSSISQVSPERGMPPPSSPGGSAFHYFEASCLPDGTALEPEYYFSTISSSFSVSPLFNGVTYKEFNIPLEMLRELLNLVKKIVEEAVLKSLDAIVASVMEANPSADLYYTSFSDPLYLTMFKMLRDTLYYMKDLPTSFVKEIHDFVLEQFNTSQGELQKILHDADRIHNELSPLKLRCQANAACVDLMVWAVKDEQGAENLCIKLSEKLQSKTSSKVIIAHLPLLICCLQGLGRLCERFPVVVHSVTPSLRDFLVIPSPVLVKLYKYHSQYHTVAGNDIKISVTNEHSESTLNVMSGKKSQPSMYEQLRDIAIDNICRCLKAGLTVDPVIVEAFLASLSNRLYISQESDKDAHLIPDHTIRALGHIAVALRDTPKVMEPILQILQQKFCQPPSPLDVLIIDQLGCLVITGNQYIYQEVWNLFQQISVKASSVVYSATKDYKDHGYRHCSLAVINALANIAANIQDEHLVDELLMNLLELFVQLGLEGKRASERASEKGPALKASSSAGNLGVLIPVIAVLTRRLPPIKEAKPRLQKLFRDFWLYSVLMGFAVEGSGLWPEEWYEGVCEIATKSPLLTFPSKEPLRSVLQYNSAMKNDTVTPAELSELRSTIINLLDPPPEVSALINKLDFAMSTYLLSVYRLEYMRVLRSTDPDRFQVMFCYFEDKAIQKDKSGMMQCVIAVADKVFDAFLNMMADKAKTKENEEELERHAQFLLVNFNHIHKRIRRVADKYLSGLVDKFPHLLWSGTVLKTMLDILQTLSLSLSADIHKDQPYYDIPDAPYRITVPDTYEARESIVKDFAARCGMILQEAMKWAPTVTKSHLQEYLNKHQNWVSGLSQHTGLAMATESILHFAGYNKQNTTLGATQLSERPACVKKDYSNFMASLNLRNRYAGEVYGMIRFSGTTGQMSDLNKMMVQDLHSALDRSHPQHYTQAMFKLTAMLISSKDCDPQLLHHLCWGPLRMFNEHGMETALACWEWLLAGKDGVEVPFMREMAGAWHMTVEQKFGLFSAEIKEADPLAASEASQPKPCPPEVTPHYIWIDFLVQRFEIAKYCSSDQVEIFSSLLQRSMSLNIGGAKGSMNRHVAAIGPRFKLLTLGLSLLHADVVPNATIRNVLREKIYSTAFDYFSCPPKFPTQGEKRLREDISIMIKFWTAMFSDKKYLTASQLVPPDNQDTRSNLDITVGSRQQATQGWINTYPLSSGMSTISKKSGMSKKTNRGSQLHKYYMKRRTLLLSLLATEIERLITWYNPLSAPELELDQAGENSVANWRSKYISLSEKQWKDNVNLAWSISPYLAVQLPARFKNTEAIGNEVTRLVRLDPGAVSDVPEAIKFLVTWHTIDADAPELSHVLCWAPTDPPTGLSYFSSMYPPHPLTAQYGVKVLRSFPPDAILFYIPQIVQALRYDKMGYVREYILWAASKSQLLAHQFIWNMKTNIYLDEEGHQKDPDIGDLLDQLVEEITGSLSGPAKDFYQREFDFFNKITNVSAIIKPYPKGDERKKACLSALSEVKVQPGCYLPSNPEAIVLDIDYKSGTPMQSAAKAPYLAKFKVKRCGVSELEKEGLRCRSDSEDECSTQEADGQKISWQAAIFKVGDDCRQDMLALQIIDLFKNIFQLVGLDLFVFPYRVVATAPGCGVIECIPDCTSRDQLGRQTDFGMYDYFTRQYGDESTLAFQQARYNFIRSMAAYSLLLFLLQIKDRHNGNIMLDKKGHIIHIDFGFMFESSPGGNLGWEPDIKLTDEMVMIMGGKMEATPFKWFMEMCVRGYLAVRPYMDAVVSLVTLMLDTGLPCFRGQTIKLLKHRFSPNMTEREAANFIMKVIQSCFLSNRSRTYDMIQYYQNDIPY
UniProt Q13131: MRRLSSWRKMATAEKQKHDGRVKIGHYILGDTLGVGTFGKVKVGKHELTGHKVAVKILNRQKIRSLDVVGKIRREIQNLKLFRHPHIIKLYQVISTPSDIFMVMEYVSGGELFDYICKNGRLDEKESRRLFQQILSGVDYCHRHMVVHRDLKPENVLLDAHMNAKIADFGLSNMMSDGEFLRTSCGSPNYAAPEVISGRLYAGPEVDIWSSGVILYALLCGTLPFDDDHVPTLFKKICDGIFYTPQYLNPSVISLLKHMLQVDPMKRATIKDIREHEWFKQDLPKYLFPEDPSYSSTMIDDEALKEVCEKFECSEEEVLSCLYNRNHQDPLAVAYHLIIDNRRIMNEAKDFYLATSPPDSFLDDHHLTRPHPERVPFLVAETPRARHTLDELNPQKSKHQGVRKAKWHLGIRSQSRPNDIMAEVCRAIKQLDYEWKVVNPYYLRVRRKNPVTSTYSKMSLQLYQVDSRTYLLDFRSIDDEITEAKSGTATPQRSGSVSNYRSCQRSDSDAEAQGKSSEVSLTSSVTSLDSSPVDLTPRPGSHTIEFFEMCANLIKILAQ
UniProt P07949, whole entry, looked up: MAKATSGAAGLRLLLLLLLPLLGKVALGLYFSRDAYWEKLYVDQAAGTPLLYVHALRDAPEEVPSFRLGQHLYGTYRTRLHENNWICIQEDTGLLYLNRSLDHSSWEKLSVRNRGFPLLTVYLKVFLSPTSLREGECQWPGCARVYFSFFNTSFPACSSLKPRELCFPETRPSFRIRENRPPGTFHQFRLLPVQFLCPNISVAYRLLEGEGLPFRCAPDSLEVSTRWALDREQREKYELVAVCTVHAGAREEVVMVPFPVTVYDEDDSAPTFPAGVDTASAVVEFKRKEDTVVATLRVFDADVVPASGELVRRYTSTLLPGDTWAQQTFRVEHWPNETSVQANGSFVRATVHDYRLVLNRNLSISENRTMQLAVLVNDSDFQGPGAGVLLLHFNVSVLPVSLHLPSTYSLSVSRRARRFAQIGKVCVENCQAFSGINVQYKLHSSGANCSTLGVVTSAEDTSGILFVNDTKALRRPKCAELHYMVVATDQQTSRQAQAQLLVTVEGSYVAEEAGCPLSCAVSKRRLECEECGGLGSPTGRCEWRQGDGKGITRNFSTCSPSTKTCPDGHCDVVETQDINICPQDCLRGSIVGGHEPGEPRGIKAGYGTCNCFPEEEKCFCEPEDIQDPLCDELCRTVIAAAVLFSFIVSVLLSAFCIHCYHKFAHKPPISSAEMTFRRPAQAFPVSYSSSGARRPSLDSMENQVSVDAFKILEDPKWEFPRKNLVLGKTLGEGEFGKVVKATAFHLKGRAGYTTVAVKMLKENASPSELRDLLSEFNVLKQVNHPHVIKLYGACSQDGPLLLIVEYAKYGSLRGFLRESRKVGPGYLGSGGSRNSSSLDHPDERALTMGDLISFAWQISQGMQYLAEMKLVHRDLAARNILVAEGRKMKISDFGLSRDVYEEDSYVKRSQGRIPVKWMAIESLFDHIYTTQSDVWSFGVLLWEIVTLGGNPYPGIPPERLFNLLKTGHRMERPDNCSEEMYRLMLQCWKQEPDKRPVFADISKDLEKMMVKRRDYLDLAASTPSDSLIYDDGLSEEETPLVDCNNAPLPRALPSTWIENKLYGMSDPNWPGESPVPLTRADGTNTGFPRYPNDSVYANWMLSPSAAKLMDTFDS
UniProt P07949, whole entry M918T, looked up: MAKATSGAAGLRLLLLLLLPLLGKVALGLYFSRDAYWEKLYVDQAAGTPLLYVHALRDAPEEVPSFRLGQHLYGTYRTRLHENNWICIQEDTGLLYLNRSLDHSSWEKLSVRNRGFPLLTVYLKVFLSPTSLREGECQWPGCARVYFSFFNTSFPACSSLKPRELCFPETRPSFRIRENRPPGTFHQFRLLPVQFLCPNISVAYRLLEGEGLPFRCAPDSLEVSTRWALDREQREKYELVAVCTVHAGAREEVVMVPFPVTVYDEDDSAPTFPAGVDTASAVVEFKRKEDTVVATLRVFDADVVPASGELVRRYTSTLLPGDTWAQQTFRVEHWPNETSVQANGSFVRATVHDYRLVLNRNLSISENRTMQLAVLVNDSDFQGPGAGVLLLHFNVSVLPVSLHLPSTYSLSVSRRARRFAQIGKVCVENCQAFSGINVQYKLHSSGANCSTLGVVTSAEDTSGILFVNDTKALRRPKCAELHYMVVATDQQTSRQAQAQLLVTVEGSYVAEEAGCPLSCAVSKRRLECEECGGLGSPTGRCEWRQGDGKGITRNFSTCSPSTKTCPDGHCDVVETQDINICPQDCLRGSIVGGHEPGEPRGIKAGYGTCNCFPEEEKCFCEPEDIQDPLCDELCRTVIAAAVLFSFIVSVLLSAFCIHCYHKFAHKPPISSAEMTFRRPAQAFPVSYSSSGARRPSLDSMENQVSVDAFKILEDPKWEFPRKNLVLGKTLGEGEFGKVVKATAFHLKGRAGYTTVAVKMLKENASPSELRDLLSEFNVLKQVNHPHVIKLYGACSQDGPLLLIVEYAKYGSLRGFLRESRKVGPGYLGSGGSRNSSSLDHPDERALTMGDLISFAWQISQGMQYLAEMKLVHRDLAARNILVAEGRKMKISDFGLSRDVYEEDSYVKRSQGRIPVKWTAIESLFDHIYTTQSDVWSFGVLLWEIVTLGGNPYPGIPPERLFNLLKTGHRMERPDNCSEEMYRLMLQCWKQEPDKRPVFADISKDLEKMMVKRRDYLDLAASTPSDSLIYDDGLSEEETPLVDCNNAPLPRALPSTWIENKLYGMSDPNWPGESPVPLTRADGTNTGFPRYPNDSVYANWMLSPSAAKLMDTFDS
UniProt Q15418, whole entry: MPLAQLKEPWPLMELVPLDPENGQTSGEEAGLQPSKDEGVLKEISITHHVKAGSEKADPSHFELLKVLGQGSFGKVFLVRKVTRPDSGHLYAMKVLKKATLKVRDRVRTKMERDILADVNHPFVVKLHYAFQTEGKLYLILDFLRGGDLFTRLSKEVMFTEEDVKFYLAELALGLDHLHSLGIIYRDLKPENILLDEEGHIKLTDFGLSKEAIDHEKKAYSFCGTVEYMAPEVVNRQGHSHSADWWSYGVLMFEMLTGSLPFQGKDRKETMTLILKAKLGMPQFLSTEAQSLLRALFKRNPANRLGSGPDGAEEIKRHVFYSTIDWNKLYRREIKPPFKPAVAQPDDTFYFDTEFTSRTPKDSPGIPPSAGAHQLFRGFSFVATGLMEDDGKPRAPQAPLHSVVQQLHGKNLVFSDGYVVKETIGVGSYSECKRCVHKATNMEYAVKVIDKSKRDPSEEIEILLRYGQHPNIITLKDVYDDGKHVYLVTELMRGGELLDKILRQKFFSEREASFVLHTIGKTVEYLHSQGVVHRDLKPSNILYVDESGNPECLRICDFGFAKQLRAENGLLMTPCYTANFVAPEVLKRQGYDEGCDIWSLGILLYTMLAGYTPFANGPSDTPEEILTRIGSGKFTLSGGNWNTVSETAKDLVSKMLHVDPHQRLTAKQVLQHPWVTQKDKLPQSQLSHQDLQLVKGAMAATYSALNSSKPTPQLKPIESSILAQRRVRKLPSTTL
UniProt Q9NYA1, whole entry: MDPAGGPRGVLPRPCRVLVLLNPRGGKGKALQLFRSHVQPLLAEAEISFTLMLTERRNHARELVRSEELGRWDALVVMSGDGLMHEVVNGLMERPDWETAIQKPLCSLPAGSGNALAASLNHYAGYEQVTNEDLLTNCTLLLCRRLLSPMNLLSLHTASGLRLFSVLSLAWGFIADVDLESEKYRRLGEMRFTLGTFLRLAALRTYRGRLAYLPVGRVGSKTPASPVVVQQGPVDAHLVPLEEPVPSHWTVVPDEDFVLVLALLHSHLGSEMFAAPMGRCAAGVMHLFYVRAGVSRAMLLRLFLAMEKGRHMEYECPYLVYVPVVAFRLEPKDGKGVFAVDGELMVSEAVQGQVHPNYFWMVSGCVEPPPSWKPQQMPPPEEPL
UniProt Q9Y6E0: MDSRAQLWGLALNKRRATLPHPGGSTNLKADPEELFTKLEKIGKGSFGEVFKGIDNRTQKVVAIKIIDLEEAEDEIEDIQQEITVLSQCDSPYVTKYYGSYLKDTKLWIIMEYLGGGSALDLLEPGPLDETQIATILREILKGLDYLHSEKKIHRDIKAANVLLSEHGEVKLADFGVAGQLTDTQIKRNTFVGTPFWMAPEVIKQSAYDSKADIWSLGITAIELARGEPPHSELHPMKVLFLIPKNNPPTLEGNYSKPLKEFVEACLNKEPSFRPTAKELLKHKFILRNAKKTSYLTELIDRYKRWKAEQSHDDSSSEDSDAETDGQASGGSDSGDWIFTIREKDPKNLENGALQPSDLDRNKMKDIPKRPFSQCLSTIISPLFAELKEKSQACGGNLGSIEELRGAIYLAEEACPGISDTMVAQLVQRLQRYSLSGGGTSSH

What was measured:
Assay in all cases: kinase-Nluc reporter destabilization hit call (1 = scored as downregulated) (binary); higher = compound decreases kinase abundance
Details in all cases: K562; 2-18 h
PDPK1 = PDPK1 (UniProt O15530)
PIK4CA = PIK4CA (UniProt P42356)
PIK4CB = PIK4CB (UniProt Q9UBF8)
PLK1 = PLK1 (UniProt P53350)
PRKAA1 = PRKAA1 (UniProt Q13131)
PRKCA = PRKCA (UniProt P17252)
PTK2 = PTK2 (UniProt Q05397)
PTK2B = PTK2B (UniProt Q14289)
RAF1 = RAF1 (UniProt P04049)
[1] = target: RAF1_S257L (clone: RAF1_mut) (UniProt P04049)
RET = RET (UniProt P07949)
[2] = target: RET_M918T (clone: RET_mut) (UniProt P07949)
RIOK1 = RIOK1 (UniProt Q9BRS2)
RIPK1 = RIPK1 (UniProt Q13546)
RIPK2 = RIPK2 (UniProt O43353)
ROR2 = ROR2 (UniProt Q01974)
RPS6KA1 = RPS6KA1 (UniProt Q15418)
SPHK1 = SPHK1 (UniProt Q9NYA1)
SRC = SRC (UniProt P12931)
STK24 = STK24 (UniProt Q9Y6E0)

Measured: kinase-Nluc reporter destabilization hit call

Cc1cc(Nc2ncnc3ccc(NC4=NC(C)(C)CO4)cc23)ccc1Oc1ccn2ncnc2c1 [Tucatinib (hemiethanolate)] (2.5 µM)
inactive: PDPK1 = 0 | PIK4CA 0 | PIK4CB 0 | PLK1 = 0 | PRKAA1 = 0 | PRKCA 0 | PTK2 = 0 | PTK2B 0 | RAF1 = 0 | [1] 0 | RET 0 | [2] 0 | RIOK1 = 0 | RIPK1 = 0 | RIPK2 = 0 | ROR2 = 0 | RPS6KA1 = 0 | SPHK1 = 0 | SRC 0 | STK24 = 0

O=C([O-])c1cc2ccccc2c(Cc2c(O)c(C(=O)[O-])cc3ccccc23)c1O.[Na+].[Na+] [Pamoic acid (disodium)] (10 µM)
inactive: PDPK1 = 0 | PIK4CA 0 | PIK4CB 0 | PLK1 = 0 | PRKAA1 = 0 | PRKCA 0 | PTK2 = 0 | PTK2B 0 | RAF1 = 0 | [1] 0 | RET 0 | [2] 0 | RIOK1 = 0 | RIPK1 = 0 | RIPK2 = 0 | ROR2 = 0 | RPS6KA1 = 0 | SPHK1 = 0 | SRC 0 | STK24 = 0

COc1ccccc1-c1cc(Nc2cccc(CS(N)(=O)=O)c2)ncn1 (10 µM)
inactive: PDPK1 = 0 | PIK4CA 0 | PIK4CB 0 | PLK1 = 0 | PRKAA1 = 0 | PRKCA 0 | PTK2 = 0 | PTK2B 0 | RAF1 = 0 | [1] 0 | RET 0 | [2] 0 | RIOK1 = 0 | RIPK1 = 0 | RIPK2 = 0 | ROR2 = 0 | RPS6KA1 = 0 | SPHK1 = 0 | SRC 0 | STK24 = 0

CNC(=O)c1c(F)cccc1Nc1nc(Nc2cc3c(cc2OC)CCN3C(=O)CN(C)C)nc2[nH]ccc12 (10 µM)
inactive: PDPK1 = 0 | PIK4CA 0 | PIK4CB 0 | PLK1 = 0 | PRKAA1 = 0 | PRKCA 0 | PTK2 = 0 | PTK2B 0 | RAF1 = 0 | [1] 0 | RET 0 | [2] 0 | RIOK1 = 0 | RIPK1 = 0 | RIPK2 = 0 | ROR2 = 0 | RPS6KA1 = 0 | SPHK1 = 0 | SRC 0 | STK24 = 0

Two neighbouring entries from above:
Cc1cc(Nc2ncnc3ccc(NC4=NC(C)(C)CO4)cc23)ccc1Oc1ccn2ncnc2c1 [Tucatinib (hemiethanolate)] (2.5 µM)
inactive: PDPK1 = 0 | PIK4CA 0 | PIK4CB 0 | PLK1 = 0 | PRKAA1 = 0 | PRKCA 0 | PTK2 = 0 | PTK2B 0 | RAF1 = 0 | [1] 0 | RET 0 | [2] 0 | RIOK1 = 0 | RIPK1 = 0 | RIPK2 = 0 | ROR2 = 0 | RPS6KA1 = 0 | SPHK1 = 0 | SRC 0 | STK24 = 0

O=C([O-])c1cc2ccccc2c(Cc2c(O)c(C(=O)[O-])cc3ccccc23)c1O.[Na+].[Na+] [Pamoic acid (disodium)] (10 µM)
inactive: PDPK1 = 0 | PIK4CA 0 | PIK4CB 0 | PLK1 = 0 | PRKAA1 = 0 | PRKCA 0 | PTK2 = 0 | PTK2B 0 | RAF1 = 0 | [1] 0 | RET 0 | [2] 0 | RIOK1 = 0 | RIPK1 = 0 | RIPK2 = 0 | ROR2 = 0 | RPS6KA1 = 0 | SPHK1 = 0 | SRC 0 | STK24 = 0

Next results:

COc1cc(Nc2ncc(F)c(Nc3ccc4c(n3)NC(=O)C(C)(C)O4)n2)cc(OC)c1OC [R406 (free base)] (10 µM)
inactive: PDPK1 = 0 | PIK4CA 0 | PIK4CB 0 | PLK1 = 0 | PRKAA1 = 0 | PRKCA 0 | PTK2 = 0 | RAF1 = 0 | [1] 0 | RIOK1 = 0 | RIPK1 = 0 | RIPK2 = 0 | ROR2 = 0 | RPS6KA1 = 0 | SPHK1 = 0 | SRC 0 | STK24 = 0

Cc1c(NC(=O)c2cccn(-c3ccc(F)cc3)c2=O)ccc(Oc2ccnc(NC(=O)C3CC3)c2)c1C (2 µM)
inactive: PDPK1 = 0 | PIK4CA 0 | PIK4CB 0 | PLK1 = 0 | PRKAA1 = 0 | PRKCA 0 | PTK2 = 0 | PTK2B 0 | RAF1 = 0 | [1] 0 | RET 0 | [2] 0 | RIOK1 = 0 | RIPK1 = 0 | RIPK2 = 0 | ROR2 = 0 | RPS6KA1 = 0 | SPHK1 = 0 | SRC 0 | STK24 = 0

O=C(NCCN1CCCC1)c1cc(-c2ccc(CN3CCOCC3)cc2)nc2ccc(F)cc12 (10 µM)
inactive: PDPK1 = 0 | PIK4CA 0 | PIK4CB 0 | PLK1 = 0 | PRKAA1 = 0 | PRKCA 0 | PTK2 = 0 | PTK2B 0 | RAF1 = 0 | [1] 0 | RET 0 | [2] 0 | RIOK1 = 0 | RIPK1 = 0 | RIPK2 = 0 | ROR2 = 0 | RPS6KA1 = 0 | SPHK1 = 0 | SRC 0 | STK24 = 0

CN(C)CCSSCCNC(=O)C1CCN(C(=O)CSc2ccc(Cl)cc2)CC1 (10 µM)
inactive: PDPK1 = 0 | PIK4CA 0 | PIK4CB 0 | PLK1 = 0 | PRKAA1 = 0 | PRKCA 0 | PTK2 = 0 | PTK2B 0 | RAF1 = 0 | [1] 0 | RET 0 | [2] 0 | RIOK1 = 0 | RIPK1 = 0 | RIPK2 = 0 | ROR2 = 0 | RPS6KA1 = 0 | SPHK1 = 0 | SRC 0 | STK24 = 0

C[C@@H](c1ccc(-c2ccccc2)c(F)c1)c1cc(NC(=N)N2CCOCC2)on1 [Rimacalib] (10 µM)
inactive: PDPK1 = 0 | PIK4CA 0 | PIK4CB 0 | PLK1 = 0 | PRKAA1 = 0 | PRKCA 0 | PTK2 = 0 | PTK2B 0 | RAF1 = 0 | [1] 0 | RET 0 | [2] 0 | RIOK1 = 0 | RIPK1 = 0 | RIPK2 = 0 | ROR2 = 0 | RPS6KA1 = 0 | SPHK1 = 0 | SRC 0 | STK24 = 0

CC1CCc2c(cc(Br)c(F)c2Br)N1C=O (configuration not stated) (10 µM)
inactive: PDPK1 = 0 | PIK4CA 0 | PIK4CB 0 | PLK1 = 0 | PRKAA1 = 0 | PRKCA 0 | PTK2 = 0 | PTK2B 0 | RAF1 = 0 | [1] 0 | RET 0 | [2] 0 | RIOK1 = 0 | RIPK1 = 0 | RIPK2 = 0 | ROR2 = 0 | RPS6KA1 = 0 | SPHK1 = 0 | SRC 0 | STK24 = 0
